This note sets out measurements from PubChem BioAssay AID662 (National Center for Advancing Translational Sciences (NCATS), 2007).

Each structure is given as a SMILES string. The list shows a part of the results. Further columns of the screen follow, without active or inactive calls. The list favours compounds with an active or inconclusive main result. The note in brackets gives the kind of curve behind each potency; many fits are weak.

This experiment in a line: Cell signaling CRE-BLA (Fsk stim). The following applies: CHO CRE-bla reporter (cAMP response element driving beta-lactamase), forskolin EC10, beta-lactamase ratio; measured here: 460 nm blue channel. Summed up: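 The 460nm/530nm emission ratio after CCF4 loading defined %Activity, from which AC50 values were obtained. CRE-bla CHO cells received compound dilution series together with an EC10 level of NKH 477 for 3 hours at 37 degrees Celsius.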
Turning to `COc1ncnc2c1oc1nc(C(C)C)c3c(c12)CC(C)(C)OC3`, the AC50 was 0.398 µM [rising, full curve].

In the case of `O=c1c(-c2cc(F)cc(F)c2)nc2cncnc2n1Cc1ccccc1`, the AC50 was 25.1 µM [rising, single point]. For `O=c1c2cc(N3CCOCC3)ccc2[nH]c(=S)n1CC1CCCO1` (stereo not drawn) the value was 10 µM [rising, single point]. As to `COc1cc2c(C(=O)NCCCN3CCN(c4cccc(Cl)c4)CC3)cn(C)c(=O)c2cc1OC`, the AC50 is 2.51 µM [rising, full curve]. Regarding `CCOC(=O)CSC1=C(C#N)C(c2ccccc2C)C2=C(CCCC2=O)N1` (stereo not drawn), the AC50 was 0.316 µM [rising, full curve, poor fit].

Regarding `COc1ccc2nc(C)cc(Nc3ccc(N4CCOCC4)cc3)c2c1`, the AC50 is 15.8 µM [rising, partial curve].

Regarding `C=CCNc1nc(-c2sc(NC(=O)CC)nc2C)cs1`, the AC50 was 1.58 µM [rising, single point]. `Cc1cc(N2CCC(C)CC2)nc(-n2nc(C)cc2C)n1`: the AC50 is 12.6 µM [rising, single point].

In the case of `CC1=NCCN1S(=O)(=O)c1cc(Cl)ccc1Cl`, the AC50 is 0.0501 µM [falling, full curve].

As to `COc1cc(C(=O)Nc2cc(-c3ccccc3)[nH]n2)cc(OC)c1OC`, the AC50 is 0.398 µM [rising, full curve]. Consider `COc1cc(-c2noc(C3CCCN(S(=O)(=O)c4cccc(Cl)c4)C3)n2)cc(OC)c1OC` (stereo not drawn), for which the AC50 was 0.501 µM [rising, full curve]. In the case of `c1ccc(-c2cnc(-c3cccnc3)o2)cc1`, the AC50 was 15.8 µM [rising, single point]. For `CCCCOC(=O)C1=C(C)Nc2ncnn2C1c1cc(OC)c(OC)cc1OC` (stereo not drawn) the value was 10 µM [rising, partial curve]; for `CCc1ccc(C2C(C#N)=C(N)SC(N)=C2C#N)s1`, 25.1 µM [falling, single point]; for `COC(=O)c1ccccc1S(=O)(=O)N(Cc1cc2cc3c(cc2[nH]c1=O)OCO3)C1CCCCC1`, 15.8 µM [rising, partial curve]. For `Cn1cc(S(=O)(=O)Nc2ccc(F)cc2F)c(=O)n(C)c1=O`, the AC50 was 10 µM [rising, single point]. For `O=C(COC(=O)C1CCCN1C(=O)c1cccs1)c1ccccc1` (stereo not drawn) the value was 0.01 µM [falling, partial curve, poor fit]; for `CCOc1ccc(CCNC(=O)CCN2C(=O)COc3ccccc32)cc1OCC`, 12.6 µM [rising, single point]. On to `c1cc(-c2nc3cc(Oc4ccc5oc(-c6ccncc6)nc5c4)ccc3o2)ccn1`, for which the AC50 was 2.51 µM [rising, partial curve].

In the case of `O=C(CSc1nnc(-c2cccnc2)n1-c1ccccc1)Nc1ccccn1`, the AC50 was 10 µM [rising, single point]. Take `COC(=O)c1cc2ccccc2c(=O)s1`: the concentration at half-maximal activity (AC50) was 25.1 µM [rising, single point].

Take `COc1ccc(NC(=O)CN2CCN(CC(=O)Nc3ccccc3Cl)CC2)cc1Cl`: the AC50 is 0.2 µM [rising, single point]. As to `Cc1cc(C(=O)CN2C(=O)NC(c3ccccc3)(c3ccccc3)C2=O)c(C)n1Cc1ccco1`, the AC50 was 10 µM [falling, single point]. In the case of `COc1cccc(NC(=O)Cc2nnc(SCC(=O)c3ccccc3)n2C)c1`, the AC50 was 3.16 µM [falling, full curve]. `Cc1occc1C(=O)NCc1cccs1`: the AC50 was 3.98 µM [rising, single point]. As to `COCCCNc1oc(-c2ccccc2OC)nc1C#N`, the AC50 is 0.794 µM [rising, single point].

With `CCNc1ncc2nc(-c3cc(F)cc(F)c3)c(=O)n(C)c2n1`, the AC50 was 2.51 µM [rising, full curve]. In the case of `CCN(CC)C(=O)CSc1ncnc2c(-c3cccs3)nsc12`, the AC50 is 25.1 µM [rising, single point].

`CNc1sc(C(=O)c2cccs2)c(N)c1-c1nc2ccccc2s1`: the concentration at half-maximal activity (AC50) was 12.6 µM [falling, partial curve]. With `O=C(c1ccco1)N1CCC[C@@]2(CCN(C(c3ccccc3)c3ccccc3)C2)C1`, the AC50 is 5.01 µM [falling, single point]. On to `Cc1ccsc1-c1nc(CSCC(=O)NCCN2CCCC2)c(C)o1`, for which the half-maximal activity concentration (AC50) is 0.0631 µM [falling, partial curve, poor fit]. For `COCCn1c(SCc2ccc(C(=O)OC)o2)nc2cc(Cl)ccc2c1=O` the value was 5.01 µM [rising, partial curve]; for `COC(=O)c1[nH]c2ccc(C)cc2c1NC(=O)C1=COCCO1`, 25.1 µM [rising, single point]. Under `CCOC(=O)c1cc(C#N)c(SCC(=O)c2cc(C#N)c(SC)nc2C)nc1C` stands 2 µM [rising, single point]. For `CCN1CCN(C(c2cccs2)C(C)NC(=O)c2ccco2)CC1` (stereo not drawn) the value was 1 µM [rising, partial curve]; for `C/C(N)=C(/C#N)C(=O)CSc1n[nH]c(-c2ccccc2Br)n1`, 0.631 µM [falling, full curve, poor fit].

Regarding `Cc1ccc(-c2c(C#N)c(N)nc3c2CCCCCC3)o1`, the AC50 is 2.51 µM [rising, full curve, poor fit].

Turning to `CCn1c(SCC(=O)Nc2ccc(C(C)=O)cc2)nc2ccccc21`, the AC50 is 10 µM [rising, single point]. In the case of `CCOC(=O)C1CCN(Cc2cn[nH]c2-c2ccc(C)cc2)CC1`, the AC50 is 5.01 µM [falling, single point]. For `COc1ccc(C2NC(=O)NC(C)=C2C(=O)Nc2cccc(C)c2C)cc1` (stereo not drawn) the value was 7.94 µM [rising, partial curve]; for `Nc1ccccc1NC(=O)c1ccccc1N`, 0.00316 µM [falling, full curve, poor fit]; for `Cc1c2c(nc3ccccc13)-c1cccc(=O)n1C2`, 2.51 µM [rising, full curve]. `CCCCOc1ccccc1NC(=O)CC1Nc2ccccc2NC1=O` (stereo not drawn): the half-maximal activity concentration (AC50) is 2.51 µM [rising, partial curve]. Turning to `CN(C)c1ncc2ncc(=O)n(C[C@H]3CCCO3)c2n1`, the AC50 is 12.6 µM [rising, partial curve].

With `COc1nc(-c2ccc(C)cc2)ccc1-c1noc(-c2cccnc2)n1`, the AC50 was 0.794 µM [falling, single point]. Under `Cc1nc(=O)c(-c2ccccc2)c(C)n1-c1ccc(C(=O)O)cc1` stands 0.631 µM [falling, full curve]; under `Cc1cnc(CNc2ncnc3ccc(-c4c(C)noc4C)cc23)cn1`, 10 µM [rising, partial curve]; under `O=C(NCc1ccco1)C1CCCN(S(=O)(=O)c2cccc3nonc23)C1` (stereo not drawn), 10 µM [falling, single point]. For `O=c1oc(-c2cccs2)nc2c1cnn2-c1ccccc1` the value was 12.6 µM [rising, single point]; for `COc1ccc(Cl)cc1NC(=O)COc1cccc(-n2cnnn2)c1`, 12.6 µM [rising, partial curve]. With `COCCNc1ncnc2ccc(-c3ccccc3OC)cc12`, the AC50 was 12.6 µM [rising, single point]. In the case of `CCCCCNC(=O)CCCCn1c(=O)[nH]c2cc(OCC)c(OCC)cc2c1=O`, the AC50 was 5.01 µM [falling, partial curve]. For `COc1cccc(Nc2ncc3nc(CCc4ccccc4)c(=O)n(C)c3n2)c1` the value was 15.8 µM [rising, partial curve]. In the case of `O=C(Nc1nc2ccc(Cl)cc2s1)c1ccc(Br)o1`, the AC50 was 1 µM [falling, single point]. For `CCOC(=O)c1c(NC(=O)CSc2n[nH]c(-c3ccco3)n2)sc(C)c1C` the value was 0.0501 µM [rising, full curve]; for `CCCn1c2c(c(O)c(C(=O)Nc3ccc(OC)cc3)c1=O)CCCC2`, 3.16 µM [rising, partial curve]. Regarding `COc1ccc(Cn2nnc3c(=O)[nH]c(C4CCCN(C(=O)c5ccccc5)C4)nc32)cc1` (stereo not drawn), the concentration at half-maximal activity (AC50) was 10 µM [rising, partial curve]. In the case of `CCc1c(C)nc2ncnn2c1N1CCCC(C(=O)NCc2ccco2)C1` (stereo not drawn), the AC50 was 10 µM [rising, single point]. For `COc1ccccc1OCC(=O)Nc1ccc(S(=O)(=O)N2CCCCCC2)cc1`, the AC50 is 1 µM [falling, single point].

For `C[C@@]12C(=O)OC(=O)[C@@]1(C)[C@H]1CC[C@@H]2O1`, the AC50 is 0.501 µM [rising, full curve, poor fit]. In the case of `CCc1ccc(N(C(C)=O)C2C=CS(=O)(=O)C2)cc1` (stereo not drawn), the half-maximal activity concentration (AC50) was 2 µM [falling, full curve, poor fit].

For the molecule `COc1cc(C(=O)NCc2cn3cccc(C)c3n2)cc(OC)c1OC`, the AC50 was 7.94 µM [rising, partial curve]. In the case of `c1ccc(-n2nnnc2Sc2n[nH]c(-c3ccncc3)n2)cc1`, the AC50 was 3.98 µM [falling, partial curve]. For `N#Cc1cccc(NC(=O)N2CCC3(CC2)CCN(C(=O)c2csnn2)CC3)c1` the value was 25.1 µM [rising, single point]; for `COCCn1c(=O)c(-c2ccccc2)nc2cnc(N3CCNCC3)nc21`, 12.6 µM [rising, partial curve]; for `CC1Cc2ccccc2N1C(=O)CN1C(=O)NC(C)(c2ccc3c(c2)OCCO3)C1=O` (stereo not drawn), 0.126 µM [falling, partial curve, poor fit]. As to `CC1CCc2c(sc(NC(=O)c3ccc(Cn4cc(Br)cn4)o3)c2C(N)=O)C1` (stereo not drawn), the concentration at half-maximal activity (AC50) was 12.6 µM [rising, partial curve].

For the molecule `Cn1nc(-c2ccc(C(=O)Nc3cccnc3)cc2)c2ccccc2c1=O`, the AC50 is 3.98 µM [rising, partial curve].
